From PubChem BioAssay AID493014 (National Center for Advancing Translational Sciences (NCATS), 2011)
Some of the results follow. These are further read-outs of the screen, such as a control signal, another cell line or another target. No call is given for them. Compounds called inactive in the main read-out are mostly missing here. Potencies come from curve fits of mixed quality, noted in brackets.

Assay: qHTS Assay to Find Inhibitors of Chronic Active B-Cell Receptor Signaling
Conditions: ABC-DLBCL IkBa-CBG/CBR reporter, luminescence ratio (green luciferase fused to IkBa over red control in TMD8 lymphoma cells), 4 h
How it was run: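 Cell line TMD8 (human ABC DLBCL), stably expressing tet-inducible CBG68-IkBa fusion and CBR; IMDM/0.5% FBS; cpd up to 46 uM; dox induction, 4 h, 37C/5% CO2; dual luminescence; green/red ratio; MG132 control.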

[1] = measured here: CBR red luminescence, cell number
[2] = measured here: IkBa-CBG green luminescence

SMILES	AC50 [1]	AC50 [2]
Cc1cc(C)nc(SCc2nnc(SCC(=O)Nc3cc(C(F)(F)F)ccc3Cl)o2)n1	20.6 µM [rising, single point]	
Cc1nn(-c2ccc(C(=O)O)cc2)c(C)c1Cl	35.5 µM [falling, single point]	
COCc1cc(=O)n2[nH]cc(-c3ccsc3)c2n1	5.62 µM [rising, single point]	
COc1cccc(/C=C2/SC(=O)N(C)C2=O)c1OCc1ccc(C(=O)O)cc1	20 µM [falling, single point]	
Cc1ccccc1NCCNc1ccccc1C	29.1 µM [falling, partial curve, poor fit]	
C/C(=N\NC(=O)c1cc(O)ccc1O)c1cccc(NC(=O)c2cccc(Cl)c2)c1	10 µM [falling, partial curve, poor fit]	
COc1cc(/C=C2/SC(=S)N(Cc3ccccc3)C2=O)cc(Cl)c1O	35.5 µM [rising, single point]	
Cc1cc(N2CCOCC2)n2ncc(-c3ccccc3)c2n1	4.61 µM [falling, full curve, poor fit]	
CCc1ccc(NC(=O)C2CCCN(S(=O)(=O)c3cccs3)C2)cc1 (configuration not stated)	1.78 µM [falling, partial curve, poor fit]	
O=C(Cc1ccc(S(=O)(=O)N2CCCCC2)s1)Nc1cccc2ccccc12	6.51 µM [rising, partial curve, poor fit]	
C/C(=C(/CCO)SSCC1CCCO1)N(C=O)Cc1cnc(C)nc1N (configuration not stated)	23.1 µM [falling, partial curve]	
Cc1ccc(/C(N)=N/OC(=O)c2ccc(Cl)cc2Cl)cc1	1.16 µM [rising, full curve, poor fit]	
N/C(=N\OC(=O)c1ccoc1)c1ccc(Br)cc1	0.562 µM [rising, full curve, poor fit]	
COc1ccc(-c2c(-c3ccccc3OC)sc3ccccc23)cc1	1.41 µM [rising, partial curve, poor fit]	
Cc1ccc(NC(=O)CCCNC(=O)c2ccc(Cl)cc2)c(O)c1	0.282 µM [rising, full curve, poor fit]	
CN1CCN(c2ccccc2NC(=O)C(Cc2ccccc2)n2cccc2)CC1 (configuration not stated)	29.1 µM [falling, single point]	
O=C(CCCSc1ccc(Cl)cc1)Nc1ccccc1O	0.447 µM [falling, full curve]	
Cc1ccccc1NC(=O)C(C)O/N=C/c1cccc([N+](=O)[O-])c1 (configuration not stated)	2.91 µM [rising, partial curve, poor fit]	
COc1ccc(C(=O)COC(=O)/C=C/c2ccco2)cc1F	20.6 µM [rising, partial curve, poor fit]	
NS(=O)(=O)c1cccc(NC(=O)COC(=O)CN2C(=O)C3CC=CCC3C2=O)c1 (configuration not stated)	3.98 µM [rising, partial curve, poor fit]	
Cc1ccc(C(=O)NN2C(=O)c3ccc(S(=O)(=O)c4ccc(C(=O)O)cc4)cc3C2=O)cc1	14.1 µM [falling, partial curve, poor fit]	

Three entries from above, sorted by molecular weight, smallest number first:
SMILES	AC50 [1]	AC50 [2]
Cc1cc(N2CCOCC2)n2ncc(-c3ccccc3)c2n1	4.61 µM [falling, full curve, poor fit]	
CCc1ccc(NC(=O)C2CCCN(S(=O)(=O)c3cccs3)C2)cc1 (configuration not stated)	1.78 µM [falling, partial curve, poor fit]	
O=C(Cc1ccc(S(=O)(=O)N2CCCCC2)s1)Nc1cccc2ccccc12	6.51 µM [rising, partial curve, poor fit]	

(cont.)

SMILES	AC50 [1]	AC50 [2]
O=C(c1cc2cc([N+](=O)[O-])ccc2oc1=O)N1CCOCC1	3.16 µM [falling, full curve]	0.316 µM [rising, full curve]
CS(=O)(=O)c1ccc(C(=O)OC2CCOC2=O)cc1[N+](=O)[O-] (configuration not stated)	15.8 µM [falling, single point]	
O=C(NCCC1CCCCN1S(=O)(=O)c1cccs1)C(=O)Nc1cccc(F)c1 (configuration not stated)	2.91 µM [falling, full curve]	
COc1ccc(CN2C(=O)CCC2(C)C(=O)NCc2cccnc2)c(OC)c1 (configuration not stated)	35.5 µM [falling, single point]	
Cc1cc(C)c2c(N)c(C(=O)Nc3ccccc3C(F)(F)F)sc2n1	3.55 µM [falling, full curve, poor fit]	
COc1ccccc1C/C(N)=N/OC(=O)c1cccc([N+](=O)[O-])c1C	23.1 µM [rising, partial curve, poor fit]	
COc1ccccc1-c1n[nH]c(=S)n1Cc1ccco1	15.8 µM [falling, partial curve]	
O=c1c2cnn(-c3ccccc3)c2ncn1Cc1ccco1	5.8 µM [falling, single point]	
N#CC1=C(N)N2C(=C(C#N)C13CCN(Cc1ccccc1)CC3)Nc1ccccc12	16.4 µM [falling, single point]	
C/C(=N\NC(=O)c1c[nH]c2ccccc12)c1ccc2c(c1)OCO2	15.8 µM [falling, partial curve]	
Nc1ccc(-c2c3ccc(=O)cc-3oc3cc(O)ccc23)cc1C(=O)O	6.31 µM [rising, single point]	
CC(C)C(=O)Nc1ccc(N2CCN(C(=O)c3cccs3)CC2)cc1	13 µM [rising, single point]	
CC(C)(C)OC(=O)C[C@@H]1C/C=C\C[C@@H](CC(=O)NCCO)C(=O)N[C@H](C(C)(C)C)COC1=O	6.51 µM [falling, single point]	
COc1ccc(CCn2c(C)cc(C(=O)CCl)c2C)cc1OC	35.5 µM [falling, single point]	
CC1CC(N(C(=O)c2ccco2)c2ccccc2)c2ccccc2N1C(=O)c1ccco1 (configuration not stated)	29.1 µM [falling, single point]	20.6 µM [rising, partial curve, poor fit]
Cc1ccc2cc(NC(=O)c3ccccc3)ccc2n1	7.08 µM [falling, partial curve, poor fit]	
Cc1ccc2nc3n(c(=O)c2c1)-c1ccccc1C(=O)NC3Cc1ccccc1 (configuration not stated)	29.1 µM [rising, single point]	
Cc1cccc(NC(=O)c2cc(-c3cc(C)ccc3O)n[nH]2)c1	3.55 µM [falling, full curve]	
CCOC(=O)C(C)On1c(-c2ccc(Cl)cc2)nc2ccc([N+](=O)[O-])cc21 (configuration not stated)	11.6 µM [rising, partial curve, poor fit]	
CN(/N=C/Cc1nnnn1-c1ccc(Cl)cc1)c1ccccc1	3.16 µM [falling, single point]	
Cc1oc2c(c1C(=O)c1ccccc1)C(=O)C(=O)c1ccccc1-2	15.8 µM [falling, single point]	

SMILES	AC50 [1]	AC50 [2]
CCCCOC(=O)c1ccc(NC(=S)NC(=O)c2c(Cl)cnn2CC)cc1	3.98 µM [rising, single point]	
COc1ccc(-c2cc3nc(C)n(N)c(=O)c3s2)cc1	3.98 µM [falling, partial curve]	
O=C(c1ccc(Cl)cc1)C(Cn1cncn1)C(Sc1ccccc1)c1ccccc1 (configuration not stated)	2.06 µM [falling, partial curve, poor fit]	
CCCC(C(=O)Nc1ccc(S(=O)(=O)Nc2nccs2)cc1)c1ccccc1 (configuration not stated)	6.51 µM [rising, single point]	
O=C(O)c1ccc(NC(=S)NC(=O)c2cccnc2)cc1	5.01 µM [falling, full curve, poor fit]	
Cc1cc(C(=O)OCC(=O)Nc2ccccc2Cl)c(C)o1	29.1 µM [falling, single point]	
CCCC(=O)Nc1sc2c(c1C(=O)Nc1ccccn1)CCCC2	35.5 µM [falling, single point]	
COc1cccc(COc2nc3c(c(=O)n(C)c(=O)n3C)n2C)c1	5.8 µM [falling, partial curve, poor fit]	
COc1ccc(C)cc1NC(=O)Nc1ccccc1	29.1 µM [falling, single point]	
Cc1c(C(C)NC(=O)c2cc(COc3cccc4cnccc34)on2)cnn1C (configuration not stated)	2.82 µM [falling, partial curve, poor fit]	
CCOc1ccccc1NC(=O)Cn1nnc(C(=O)NCc2ccc3c(c2)OCO3)c1N	12.6 µM [rising, partial curve, poor fit]	
CCc1nc2ccccc2c(C(=O)OCC(=O)NC2CC2)c1C	10.3 µM [rising, partial curve, poor fit]	
C[C@@]12CCC=C[C@H]1[C@H](c1ccc3ccccc3c1)N(Cc1ccccc1)C2=O	3.55 µM [falling, partial curve, poor fit]	
CCNc1nc(NCC)nc(Oc2ccc(OCC)nn2)n1	35.5 µM [rising, single point]	
Cc1cccc(NC(=O)c2ccc([N+](=O)[O-])s2)n1	22.4 µM [falling, single point]	
CNC(=S)N(Cc1ccc2c(c1)OCO2)C1CC(=O)N(c2ccc(F)cc2)C1=O (configuration not stated)	29.1 µM [falling, single point]	
Oc1ccc(-c2nc(-c3ccc(O)c(O)c3)cs2)cc1	3.98 µM [falling, full curve, poor fit]	
O=C(Nc1ccc(Oc2ccccc2)nc1)C1CCCCN1Cc1ccco1 (configuration not stated)	14.1 µM [rising, partial curve]	20 µM [falling, single point]
CC(=O)Oc1ccc(/C=N/NC(=S)Nc2ccccc2)cc1	25.9 µM [falling, single point]	20.6 µM [falling, single point]
NNc1nc(-c2ccccc2)cc(-c2ccccc2O)n1	0.112 µM [falling, full curve, poor fit]	
O=C(NCc1cccnc1)c1cccc(NS(=O)(=O)c2ccc(Br)cc2)c1	29.1 µM [rising, single point]	
